Data as given in the supplement of paper PMC10849652.
The other results are listed elsewhere or left out.

By UniProt entry, the sequences of proteins in these tests, tags left out. Where a name states a change or a piece, a line headed by the entry shows the natural chain unless it says otherwise.
UniProt Q19AV6: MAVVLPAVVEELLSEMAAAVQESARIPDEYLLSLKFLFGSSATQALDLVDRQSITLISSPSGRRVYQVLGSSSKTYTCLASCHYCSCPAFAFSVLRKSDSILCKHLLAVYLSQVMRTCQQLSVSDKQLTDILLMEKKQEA
UniProt Q8N720: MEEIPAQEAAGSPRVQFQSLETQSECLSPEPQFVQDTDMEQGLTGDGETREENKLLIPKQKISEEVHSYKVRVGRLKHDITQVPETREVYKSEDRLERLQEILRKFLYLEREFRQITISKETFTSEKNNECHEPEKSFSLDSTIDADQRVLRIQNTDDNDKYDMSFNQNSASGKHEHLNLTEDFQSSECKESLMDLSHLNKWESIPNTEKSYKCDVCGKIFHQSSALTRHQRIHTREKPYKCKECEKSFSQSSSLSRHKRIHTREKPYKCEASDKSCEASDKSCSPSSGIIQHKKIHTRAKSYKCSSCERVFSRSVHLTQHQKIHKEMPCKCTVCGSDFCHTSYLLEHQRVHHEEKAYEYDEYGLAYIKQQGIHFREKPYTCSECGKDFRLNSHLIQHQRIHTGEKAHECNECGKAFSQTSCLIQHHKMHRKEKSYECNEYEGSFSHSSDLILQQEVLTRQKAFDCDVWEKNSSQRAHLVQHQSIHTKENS
UniProt Q8TF50: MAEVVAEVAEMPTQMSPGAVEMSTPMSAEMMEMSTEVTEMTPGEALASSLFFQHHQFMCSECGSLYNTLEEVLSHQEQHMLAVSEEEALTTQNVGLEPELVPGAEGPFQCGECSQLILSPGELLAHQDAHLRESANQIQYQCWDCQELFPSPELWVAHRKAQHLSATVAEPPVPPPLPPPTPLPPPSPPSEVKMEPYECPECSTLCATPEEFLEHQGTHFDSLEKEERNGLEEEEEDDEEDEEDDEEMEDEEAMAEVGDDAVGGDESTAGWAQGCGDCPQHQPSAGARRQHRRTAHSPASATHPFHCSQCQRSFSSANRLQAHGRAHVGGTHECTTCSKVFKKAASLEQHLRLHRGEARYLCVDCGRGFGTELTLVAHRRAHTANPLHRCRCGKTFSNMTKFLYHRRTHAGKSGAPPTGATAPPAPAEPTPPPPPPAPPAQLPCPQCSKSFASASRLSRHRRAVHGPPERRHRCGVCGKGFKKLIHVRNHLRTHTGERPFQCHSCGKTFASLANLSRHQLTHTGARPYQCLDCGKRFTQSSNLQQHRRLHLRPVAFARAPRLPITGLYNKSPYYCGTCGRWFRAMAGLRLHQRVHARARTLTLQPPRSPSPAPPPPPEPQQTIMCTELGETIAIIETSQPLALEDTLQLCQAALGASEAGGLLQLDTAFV
UniProt Q9HBT8: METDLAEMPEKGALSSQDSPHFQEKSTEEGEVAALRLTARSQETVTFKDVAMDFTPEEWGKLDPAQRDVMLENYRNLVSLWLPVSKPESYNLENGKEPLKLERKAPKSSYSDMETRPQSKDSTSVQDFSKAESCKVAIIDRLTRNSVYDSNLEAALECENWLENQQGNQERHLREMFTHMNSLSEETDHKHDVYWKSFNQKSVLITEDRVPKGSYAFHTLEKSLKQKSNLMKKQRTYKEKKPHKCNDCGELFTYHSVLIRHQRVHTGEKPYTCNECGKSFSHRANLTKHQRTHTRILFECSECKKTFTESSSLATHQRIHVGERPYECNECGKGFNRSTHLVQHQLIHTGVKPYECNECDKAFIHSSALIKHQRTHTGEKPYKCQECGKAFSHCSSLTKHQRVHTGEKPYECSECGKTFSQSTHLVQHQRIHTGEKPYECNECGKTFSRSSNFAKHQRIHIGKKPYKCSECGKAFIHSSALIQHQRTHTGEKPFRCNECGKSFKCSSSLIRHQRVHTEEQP
UniProt Q9BS34: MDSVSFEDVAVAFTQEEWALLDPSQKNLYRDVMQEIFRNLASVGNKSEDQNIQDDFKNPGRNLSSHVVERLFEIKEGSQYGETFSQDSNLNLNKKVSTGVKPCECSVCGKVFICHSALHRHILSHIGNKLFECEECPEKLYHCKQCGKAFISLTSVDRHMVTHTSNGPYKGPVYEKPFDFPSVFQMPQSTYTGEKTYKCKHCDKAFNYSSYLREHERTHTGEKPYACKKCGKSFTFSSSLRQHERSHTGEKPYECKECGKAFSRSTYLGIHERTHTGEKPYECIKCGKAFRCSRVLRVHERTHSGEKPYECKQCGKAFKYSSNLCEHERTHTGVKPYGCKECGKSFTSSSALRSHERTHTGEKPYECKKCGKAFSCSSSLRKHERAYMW
UniProt Q9Y5A6: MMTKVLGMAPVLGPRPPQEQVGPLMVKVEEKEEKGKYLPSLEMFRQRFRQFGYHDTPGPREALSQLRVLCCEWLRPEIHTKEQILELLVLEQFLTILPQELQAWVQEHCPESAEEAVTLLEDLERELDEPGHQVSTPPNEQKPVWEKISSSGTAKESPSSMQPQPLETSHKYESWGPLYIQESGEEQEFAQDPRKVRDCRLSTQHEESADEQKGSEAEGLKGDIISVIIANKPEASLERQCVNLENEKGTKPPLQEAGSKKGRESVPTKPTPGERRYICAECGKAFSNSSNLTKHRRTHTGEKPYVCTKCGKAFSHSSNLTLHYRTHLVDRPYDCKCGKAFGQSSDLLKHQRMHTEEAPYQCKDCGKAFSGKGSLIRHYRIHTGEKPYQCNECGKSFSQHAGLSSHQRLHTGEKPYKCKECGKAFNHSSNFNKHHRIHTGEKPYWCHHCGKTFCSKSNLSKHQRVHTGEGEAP
UniProt Q6ZN06: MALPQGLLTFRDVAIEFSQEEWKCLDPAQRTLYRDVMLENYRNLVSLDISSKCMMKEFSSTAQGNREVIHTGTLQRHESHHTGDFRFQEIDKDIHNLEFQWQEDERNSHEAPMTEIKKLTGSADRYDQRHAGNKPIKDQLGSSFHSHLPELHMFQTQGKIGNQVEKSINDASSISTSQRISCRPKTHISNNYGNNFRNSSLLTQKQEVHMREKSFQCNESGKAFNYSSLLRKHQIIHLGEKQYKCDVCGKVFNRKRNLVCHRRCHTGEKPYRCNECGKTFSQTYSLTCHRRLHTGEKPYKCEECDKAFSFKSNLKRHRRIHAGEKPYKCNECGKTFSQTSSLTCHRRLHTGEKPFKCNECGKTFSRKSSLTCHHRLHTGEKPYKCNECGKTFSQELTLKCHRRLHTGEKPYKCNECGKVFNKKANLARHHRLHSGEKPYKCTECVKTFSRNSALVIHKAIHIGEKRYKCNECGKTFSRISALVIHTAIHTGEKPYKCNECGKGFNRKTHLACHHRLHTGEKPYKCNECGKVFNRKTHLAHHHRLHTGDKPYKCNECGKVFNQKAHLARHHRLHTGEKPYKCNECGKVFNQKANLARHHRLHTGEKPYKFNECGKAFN
UniProt Q9P1U0, whole entry, looked up: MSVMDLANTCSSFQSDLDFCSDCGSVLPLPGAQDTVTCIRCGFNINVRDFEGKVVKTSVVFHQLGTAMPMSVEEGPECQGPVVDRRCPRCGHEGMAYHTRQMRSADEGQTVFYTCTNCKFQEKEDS
UniProt Q86VK4: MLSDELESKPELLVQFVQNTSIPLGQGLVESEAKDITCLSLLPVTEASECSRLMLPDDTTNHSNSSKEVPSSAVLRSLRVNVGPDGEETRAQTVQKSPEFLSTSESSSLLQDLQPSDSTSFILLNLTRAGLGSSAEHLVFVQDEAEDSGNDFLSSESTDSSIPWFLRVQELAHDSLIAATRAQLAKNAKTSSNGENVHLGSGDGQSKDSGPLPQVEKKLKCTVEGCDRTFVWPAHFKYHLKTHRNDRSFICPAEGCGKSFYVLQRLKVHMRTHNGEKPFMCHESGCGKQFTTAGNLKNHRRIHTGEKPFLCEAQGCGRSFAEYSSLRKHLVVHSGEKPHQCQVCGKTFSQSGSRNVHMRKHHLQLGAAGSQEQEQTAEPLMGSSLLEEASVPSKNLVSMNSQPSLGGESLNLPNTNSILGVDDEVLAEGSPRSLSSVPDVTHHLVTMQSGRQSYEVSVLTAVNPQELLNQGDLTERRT
UniProt P17019: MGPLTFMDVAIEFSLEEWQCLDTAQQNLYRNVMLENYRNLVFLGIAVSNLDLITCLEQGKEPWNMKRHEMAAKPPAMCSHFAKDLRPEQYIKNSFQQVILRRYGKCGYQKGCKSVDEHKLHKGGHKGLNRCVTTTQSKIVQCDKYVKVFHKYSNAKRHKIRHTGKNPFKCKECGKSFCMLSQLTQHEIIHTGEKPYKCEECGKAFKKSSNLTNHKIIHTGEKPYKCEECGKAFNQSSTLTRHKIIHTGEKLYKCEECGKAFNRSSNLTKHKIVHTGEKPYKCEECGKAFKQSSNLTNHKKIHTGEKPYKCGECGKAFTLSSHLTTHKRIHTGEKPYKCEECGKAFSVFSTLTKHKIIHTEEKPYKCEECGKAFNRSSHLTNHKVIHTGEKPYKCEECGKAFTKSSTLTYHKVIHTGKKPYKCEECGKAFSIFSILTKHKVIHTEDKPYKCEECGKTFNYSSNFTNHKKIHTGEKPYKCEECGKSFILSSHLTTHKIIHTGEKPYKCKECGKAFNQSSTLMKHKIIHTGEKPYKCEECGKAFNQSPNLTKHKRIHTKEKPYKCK
UniProt Q9UJN7: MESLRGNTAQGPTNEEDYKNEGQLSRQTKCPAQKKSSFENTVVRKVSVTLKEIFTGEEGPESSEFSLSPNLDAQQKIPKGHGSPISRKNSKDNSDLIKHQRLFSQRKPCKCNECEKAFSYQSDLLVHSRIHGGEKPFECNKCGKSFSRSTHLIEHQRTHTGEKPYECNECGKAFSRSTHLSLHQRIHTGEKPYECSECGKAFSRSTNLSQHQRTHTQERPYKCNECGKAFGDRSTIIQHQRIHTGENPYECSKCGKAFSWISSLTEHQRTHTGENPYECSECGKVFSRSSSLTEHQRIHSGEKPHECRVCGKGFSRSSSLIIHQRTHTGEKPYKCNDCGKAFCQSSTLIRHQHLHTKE
UniProt Q15935: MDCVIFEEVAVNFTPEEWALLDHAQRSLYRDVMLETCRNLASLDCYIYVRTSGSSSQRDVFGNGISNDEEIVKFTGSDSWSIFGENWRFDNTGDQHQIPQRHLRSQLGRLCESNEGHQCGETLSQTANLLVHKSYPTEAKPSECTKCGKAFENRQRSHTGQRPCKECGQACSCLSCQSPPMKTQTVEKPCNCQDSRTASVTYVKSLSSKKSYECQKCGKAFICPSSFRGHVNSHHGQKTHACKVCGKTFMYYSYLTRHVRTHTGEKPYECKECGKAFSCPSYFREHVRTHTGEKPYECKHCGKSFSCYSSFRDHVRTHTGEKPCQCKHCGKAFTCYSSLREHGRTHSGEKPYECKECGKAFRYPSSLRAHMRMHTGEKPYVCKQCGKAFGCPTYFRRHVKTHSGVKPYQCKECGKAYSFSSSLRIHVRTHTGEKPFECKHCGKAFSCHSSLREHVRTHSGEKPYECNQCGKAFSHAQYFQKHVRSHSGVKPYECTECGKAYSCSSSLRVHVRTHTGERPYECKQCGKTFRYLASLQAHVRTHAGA

Compound: Cc1cc(Nc2cc(CN3CCOCC3)c3nc(C)c(Cc4ccc(Cl)cc4F)n3n2)n[nH]1 [gandotinib]
Experiment: log2 fold change, soluble protein after heating vs DMSO (PISA); higher = thermal stabilisation; K562 lysate, 10 uM; active = over 0.2 and 3.5 SD of the protein, either way, in both replicates (recomputed)
How it was run: (§1)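 K562 pellets were dounce-homogenised in PBS pH 7.4 containing 1 mM MgCl2, and the crude extract, at 1 mg/mL protein, was exposed to 10 μM compound for 30 min. Aliquots were heated for 3 min across 48°C-58°C, pooled, brought to 0.5% NP-40 at 4°C and spun at 21,000xg for 90 min, with the supernatant taken as soluble protein. TMTpro 16plex LC-MS/MS with equalised channel sums quantified that protein. Values are log-two fold changes in thermal stability relative to solvent controls, taken from duplicates.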

log2 fold change, inactive:
ZSWIM7 (UniProt Q19AV6) 0.154
ZNF655 isoform 2 (UniProt Q8N720) -0.157
ZNF526 (UniProt Q8TF50) -0.062
ZNF286A (UniProt Q9HBT8) 0.002
ZNF670 (UniProt Q9BS34) 0.018
ZSCAN21 (UniProt Q9Y5A6) -0.108
ZNF813 (UniProt Q6ZN06) -0.287
ZNRD1 (UniProt Q9P1U0) 0.058

Compound: Cc1cc(Nc2cc(N3CCN(C)CC3)nc(Sc3ccc(NC(=O)C4CC4)cc3)n2)n[nH]1 [tozasertib]
Experiment: as above
How it was run: as §1

log2 fold change, inactive:
ZNF410 isoform 5 (UniProt Q86VK4) 0.324
ZNF708 (UniProt P17019) 0.099
ZNF655 isoform 3 (UniProt Q8N720) -0.11
ZSCAN21 (UniProt Q9Y5A6) -0.001
ZNF391 (UniProt Q9UJN7) -0.088
ZNF77 (UniProt Q15935) -0.223
